# Reference: paper PMC8327856
# Protein sequences, listed by entry. Tags and fused reporters are not part of them.
# UniProt Q62441: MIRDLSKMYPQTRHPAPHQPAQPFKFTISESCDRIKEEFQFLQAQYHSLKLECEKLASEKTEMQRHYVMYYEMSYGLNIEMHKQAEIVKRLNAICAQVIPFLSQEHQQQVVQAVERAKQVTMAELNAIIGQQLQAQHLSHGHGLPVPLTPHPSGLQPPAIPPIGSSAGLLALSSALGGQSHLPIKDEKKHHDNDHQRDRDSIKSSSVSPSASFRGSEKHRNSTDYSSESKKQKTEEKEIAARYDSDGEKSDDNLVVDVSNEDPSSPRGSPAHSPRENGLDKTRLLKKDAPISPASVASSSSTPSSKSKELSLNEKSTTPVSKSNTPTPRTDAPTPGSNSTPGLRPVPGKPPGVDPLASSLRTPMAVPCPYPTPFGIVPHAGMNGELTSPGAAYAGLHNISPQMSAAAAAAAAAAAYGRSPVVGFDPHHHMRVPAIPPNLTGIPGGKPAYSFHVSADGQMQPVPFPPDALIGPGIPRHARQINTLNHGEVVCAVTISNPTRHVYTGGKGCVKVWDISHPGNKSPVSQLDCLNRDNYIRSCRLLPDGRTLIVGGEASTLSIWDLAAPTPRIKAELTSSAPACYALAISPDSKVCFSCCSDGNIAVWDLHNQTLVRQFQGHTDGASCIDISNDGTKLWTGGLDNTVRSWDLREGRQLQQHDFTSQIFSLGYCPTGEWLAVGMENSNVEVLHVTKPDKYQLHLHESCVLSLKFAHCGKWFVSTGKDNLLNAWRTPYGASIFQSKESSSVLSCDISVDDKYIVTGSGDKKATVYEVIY
# UniProt Q9ESP5: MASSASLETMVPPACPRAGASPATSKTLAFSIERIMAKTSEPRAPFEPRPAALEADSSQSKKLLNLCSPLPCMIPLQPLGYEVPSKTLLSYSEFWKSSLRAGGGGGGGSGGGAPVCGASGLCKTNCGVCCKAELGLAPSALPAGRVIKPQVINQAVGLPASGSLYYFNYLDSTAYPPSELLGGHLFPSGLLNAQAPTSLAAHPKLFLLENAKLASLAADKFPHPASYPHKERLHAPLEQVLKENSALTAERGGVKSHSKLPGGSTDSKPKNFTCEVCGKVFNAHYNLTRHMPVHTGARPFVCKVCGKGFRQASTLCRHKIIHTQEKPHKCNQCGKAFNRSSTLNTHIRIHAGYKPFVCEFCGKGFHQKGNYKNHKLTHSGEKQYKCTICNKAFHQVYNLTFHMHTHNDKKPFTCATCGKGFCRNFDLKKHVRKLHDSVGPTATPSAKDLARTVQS
# Results are given in words; binding and its absence hold for the method and conditions named. Binding seen in cells or lysates may run through a third protein. Some binding calls cover weakened binding; strength is not graded here.
# Biological target: TLE4-FLAG-MYC (mouse TLE4) (mouse) (UniProt Q62441)
# Assay: co-IP; Neuro-2a cells co-transfected with Fezf2-his-myc, Tle4-flag-myc and GFP-his-myc; nuclear extract (Active Motif Nuclear Complex Co-IP kit); immunoprecipitated overnight at 4°C with Flag beads or GFP antibody; eluted with 0.1 M glycine pH 2.5; Western blot
substance,measurement,value
FEZF2-HIS-MYC (mouse FEZF2) (from UniProt Q9ESP5 1-455),binding,binds
